About 5,400 (1.8%) of roughly 300,000 compounds were called active. The shares of active, inactive and inconclusive entries below differ from those in the screen. Calls follow the shape of the full dose curve; tested in HEK293 cells. Where the call is inconclusive, the potency comes from a doubtful curve fit.
Assay: qHTS for inhibitors of binding or entry into cells for Marburg Virus
Settings: Marburg virus pseudotyped entry inhibition, cell reporter; activity change, negative = inhibition: at 37.8 µM (top of the series) unless noted
% is scaled to controls: 0 for no effect and ±100 for the full control effect; potency is read from the fitted curve at half-maximal effect.

Row | SMILES | Potency | activity change, negative = inhibition
1 | CCCCC(=O)NC(=S)Nc1cc(C(=O)O)ccc1Cl | inconclusive: 6.31 µM [activator, single point] | –
2 | Cc1cc(C(=O)COC(=O)CC2Sc3ccccc3NC2=O)c(C)n1-c1ccc2c(c1)OCO2 (configuration not stated) | – | inactive: 15.9%
3 | Cc1cccnc1NC(=O)c1cccc(NC(=O)CC2SC(N3CCCCC3)=NC2=O)c1 (configuration not stated) | inconclusive: 14.1 µM [activator, partial curve, poor fit] | –
4 | Cc1ccc(NC(=S)NCc2ccc(F)cc2)cc1 | – | inactive: -1.09% [at 46.1 µM]
5 | CCOC(=O)c1ccccc1NC(=O)N(C(C)C)C1CCN(C(C)=O)CC1 | – | inactive: -4.46% [at 46.1 µM]
6 | Cc1cc(NC(=O)Cn2nnc3sc4c(c3c2=O)CCCC4)no1 | – | inactive: -6.45%
7 | COc1cc2[nH]c(-c3ccc(C)cc3)cc(=O)c2cc1OC | – | inactive: 29.2%
8 | Cc1ccc(-c2nnc(SCc3cccc(C#N)c3)o2)cc1 | inconclusive: 35.5 µM [inhibitor, single point] | –
9 | COc1nc(N(c2ccccc2)c2ccccc2)nc(-n2ccnc2)n1 | inconclusive: 35.5 µM [inhibitor, partial curve, poor fit] | –
10 | CCOc1cc(/C=C2\SC(N)=NC2=O)ccc1O | – | inactive: 15% [at 46.1 µM]
11 | Cc1ccc(NC(=O)CSc2nnc(-c3ccco3)c(-c3ccco3)n2)cc1 | inactive | –
12 | CCOC(=O)c1c(C)noc1-c1ccc(Br)o1 | inconclusive: 6.31 µM [activator, partial curve, poor fit] | –
13 | CCCc1cc(-c2nc(-c3ccc(Br)cc3)cs2)ccn1 | – | inactive: 10.7%
14 | CCOC(=O)c1c(NC(=O)c2c(C)noc2C)sc2c1CCCCC2 | – | inactive: 6.19%
15 | Cc1ccc2nc(NC(=O)C3CCN(S(=O)(=O)c4cnc[nH]4)CC3)sc2c1 | inconclusive: 0.92 µM [activator, full curve, poor fit] | –
16 | Cc1ccc(C)n1-c1c(C(=O)NN)cnn1-c1ccccc1 | – | inactive: -22.1% [at 46.1 µM]
17 | CSc1ccc(/C=C/C(=O)c2ccc(O)cc2)cc1 | – | inactive: -19.7%
18 | Nc1ccc(-c2cnc3ccccc3n2)cc1 | inconclusive: 6.31 µM [inhibitor, partial curve, poor fit] | –
19 | CC1=C(C(=O)Nc2ccccc2F)C(c2cccs2)NC(=S)N1 (configuration not stated) | – | inactive: 11.5% [at 46.1 µM]
20 | COCC(C)n1c(SCC(=O)N2CCCCC2)nc2ccccc2c1=O (configuration not stated) | inconclusive: 0.316 µM [inhibitor, full curve, poor fit] | –
21 | O=S(Cc1ccc(Br)cc1)Cc1nnc(SCc2ccc(Br)cc2)n1-c1ccccc1 (configuration not stated) | inconclusive: 4.47 µM [inhibitor, full curve, poor fit] | –
22 | COc1ccccc1C(OC(=O)c1ccco1)C(=O)NC(C)(C)C (configuration not stated) | – | inactive: 17.9%
23 | COc1cc2c(c(OC)c1O)-c1ccc(OC)c(=O)cc1C(NC(=O)C(F)(F)F)CC2 (configuration not stated) | inconclusive: 0.562 µM [inhibitor, full curve, poor fit] | –
24 | CCOc1ccc2[nH]c(=O)c(CN(Cc3nnnn3Cc3ccco3)C3CCCCC3)cc2c1 | active: 10 µM | –
25 | N#Cc1ccccc1Cn1cc(/C=C/[N+](=O)[O-])c2ccccc21 | inconclusive: 10.3 µM [inhibitor, partial curve, poor fit] | –
26 | COC(=O)c1ccc(C(NC(=O)OCc2ccccc2)/C(F)=C/[C@@H](C)C(=O)NCc2ccc(OC)c(OC)c2)cc1 (some centres not stated) | inconclusive: 16.4 µM [inhibitor, single point] | –

Row | SMILES | Potency | activity change, negative = inhibition
27 | CCn1cnc2c1c(=O)[nH]c(=O)n2Cc1ccccc1 | inconclusive: 0.708 µM [inhibitor, single point] | –
28 | COc1ccc(/C=N/NC(=O)c2ccc(Br)cc2)c(OC)c1 | – | inactive: -2.68% [at 46.1 µM]
29 | COc1ccc(CCC(=O)Nc2ccc(C)c(S(=O)(=O)N(C)C)c2)cc1OC | active: 11.2 µM | –
30 | O=S(=O)(Nc1ccc(S(=O)(=O)N2CCCCCC2)cc1)c1cccs1 | – | inactive: -9.94%
31 | CCC(=O)Nc1nc(C)c(-c2csc(Nc3ccc(S(=O)(=O)Nc4cc(C)on4)cc3)n2)s1 | – | inactive: 0.431%
32 | Cc1cc(C)n(-c2ccc(Cl)c(C(=O)NCc3ccccc3)n2)n1 | – | inactive: -27.3% [at 46.1 µM]
33 | COc1ccc(S(=O)(=O)NCc2cccnc2)cc1OC | – | inactive: 4.78% [at 46.1 µM]
34 | CCN(CC)CCCNC(=O)c1c(O)c2c([nH]c1=O)CCCC2 | inconclusive: 1.16 µM [inhibitor, full curve, poor fit] | –
35 | O=C(O)c1ccc(C[n+]2c(-c3ccccc3)csc2Nc2ccccc2)cc1 | – | inactive: -17.1%
36 | COc1cc(C2C(C(C)=O)=C(C)Nc3ncnn32)ccc1O (configuration not stated) | inconclusive: 35.5 µM [activator, single point] | –
37 | COc1cccc(/C=N\NC(=O)c2ccc(C)nc2)c1 | inconclusive: 0.282 µM [inhibitor, full curve, poor fit] | –
38 | Cn1ncc(Cl)c1C(=O)Nc1ccc(CN2CCCCC2)cc1 | – | inactive: 1.1% [at 46.1 µM]
39 | COc1cccc(CNC(=O)CNS(=O)(=O)c2ccc(Br)s2)c1 | inconclusive: 0.316 µM [inhibitor, full curve, poor fit] | –
40 | Cc1cc(C)c2c(C)c(C(=O)Nc3c(C)n(C)n(-c4ccccc4)c3=O)oc2c1 | inconclusive: 20 µM [inhibitor, single point] | –
41 | Cc1cccc(C)c1NC(=O)c1sccc1SCc1cccc(C(F)(F)F)c1 | inconclusive: 11.6 µM [inhibitor, partial curve] | –
42 | CC1(C)CC(NC2C3CC4CC(C3)CC2C4)CC(C)(C)N1 (configuration not stated) | inconclusive: 7.94 µM [inhibitor, partial curve, poor fit] | –
43 | CC(=O)c1ccc(NC(=S)Nc2ccc3cn[nH]c3c2)cc1 | – | inactive: 9.78% [at 14.2 µM]
44 | Cc1cc(C)n(/N=C/c2ccccc2O)c(=O)c1 | inconclusive: 11.2 µM [activator, single point] | –
45 | O=S(=O)(Nc1ccc(F)cc1)N1CCOCC1 | – | inactive: -9.89% [at 46.1 µM]
46 | CCC(=O)NC(c1ccco1)c1cc(Cl)c2cccnc2c1O (configuration not stated) | inconclusive: 7.08 µM [inhibitor, partial curve, poor fit] | –
47 | O=C1c2sc3nc4c(c(=O)n3c2C(=O)N1c1ccccc1)CCC4 | – | inactive: 4.76%
48 | COC(=O)c1c(NC(=O)CN2CCC3(O)CCCCC3C2c2ccc(F)cc2)sc(C)c1C (configuration not stated) | inconclusive: 14.6 µM [inhibitor, partial curve, poor fit] | –
49 | CC(/C=N/NC(=O)c1n[nH]c2c1CCC2)=C\c1ccccc1 | inconclusive: 10.3 µM [inhibitor, partial curve, poor fit] | –
50 | S=c1nn[nH]c2ccccc12 | inconclusive: 1.26 µM [activator, partial curve, poor fit] | –
51 | O=C(CN1CCN(S(=O)(=O)c2ccc(Br)cc2)CC1)N/N=C/c1ccc(Cl)c([N+](=O)[O-])c1 | active: 14.6 µM | –
52 | COc1ccc(C(=O)n2nc(-c3ccco3)nc2NCc2cccs2)cc1OC | – | inactive: 15.9% [at 46.1 µM]

Sorted by formula weight (ascending): 5 of the compounds above
Row | SMILES | Potency | activity change, negative = inhibition
46 | CCC(=O)NC(c1ccco1)c1cc(Cl)c2cccnc2c1O (configuration not stated) | inconclusive: 7.08 µM [inhibitor, partial curve, poor fit] | –
47 | O=C1c2sc3nc4c(c(=O)n3c2C(=O)N1c1ccccc1)CCC4 | – | inactive: 4.76%
35 | O=C(O)c1ccc(C[n+]2c(-c3ccccc3)csc2Nc2ccccc2)cc1 | – | inactive: -17.1%
52 | COc1ccc(C(=O)n2nc(-c3ccco3)nc2NCc2cccs2)cc1OC | – | inactive: 15.9% [at 46.1 µM]
48 | COC(=O)c1c(NC(=O)CN2CCC3(O)CCCCC3C2c2ccc(F)cc2)sc(C)c1C (configuration not stated) | inconclusive: 14.6 µM [inhibitor, partial curve, poor fit] | –

Going on with the list:

Row | SMILES | Potency | activity change, negative = inhibition
53 | CCc1ccccc1NC(=O)N(C)CCc1c(C)nn(C)c1C | – | inactive: 1.75% [at 46.1 µM]
54 | Cc1cc(C)n2nc(C(=O)N3CCOCC3)nc2n1 | – | inactive: 6.46%
55 | CCCCOc1ccc(C(=O)C(CN2CCOCC2)c2ccccc2)cc1 (configuration not stated) | inconclusive: 25.1 µM [inhibitor, single point] | –
56 | C=C1C2c3ccccc3C(CC2(C)O[Si](C)(C)C)N1C(=O)OC (configuration not stated) | inactive | –
57 | CCOC(=O)c1nc2cc3n(c(C)c-2c1C)C(C)C(CC)=C3C (configuration not stated) | inconclusive: 17.8 µM [inhibitor, single point] | –
58 | CC(C)Oc1nc(-c2ccccc2O)nc2ccccc12 | – | inactive: 6.76%
59 | Cc1ccc(S(=O)(=O)N(C)C)cc1NC(=O)CN1C(=O)NC2(CCCCCCC2)C1=O | – | inactive: -0.455%
60 | Cc1cc(C)n(-c2nncc(-c3ccccc3)n2)n1 | – | inactive: 3.42%
61 | CN1CCN(c2ccc(NC(=O)COc3ccccc3Cl)cc2)CC1 | – | inactive: -5.21% [at 46.1 µM]
62 | CCOC(=O)c1c(NC(=O)CSc2ncccn2)sc2c1CC(C)(C)NC2(C)C | inconclusive: 20 µM [inhibitor, partial curve, poor fit] | –
63 | CC1=C[C@@H](C)O[C@@]2(C1)C(=O)Nc1cccc(Br)c12 | – | inactive: 0.619% [at 14.2 µM]
64 | CCNc1nc(OC)nc(Oc2ccc(=O)[nH]n2)n1 | – | inactive: -15.7% [at 46.1 µM]
65 | CC1CCN(CCCN2C(=O)C3C(C(=O)Nc4cccc(Cl)c4)C4C=CC3(O4)C2C(=O)NC2CCCCC2)CC1 (configuration not stated) | inconclusive: 11.2 µM [inhibitor, partial curve, poor fit] | –
66 | CC(C)(C)c1cc(Cl)ccc1OCCOCCN1CCCC1 | active: 8.91 µM | –
67 | COc1nc(NC2CCCCC2)nc(NC(C)(C)C)n1 | inconclusive: 22.4 µM [inhibitor, partial curve, poor fit] | –
68 | CCOc1ccc(C(C)NC(=S)NC2CCCCC2)cc1OCC (configuration not stated) | – | inactive: -5.07% [at 46.1 µM]
69 | COc1ccc(CCNC(=O)COC(=O)/C=C/c2ccc(OCC#N)c(OC)c2)cc1OC | – | inactive: -1.56%
70 | O=C(NCc1ccccc1)/C(=C\c1ccccc1)NC(=O)c1ccco1 | – | inactive: 15.7% [at 46.1 µM]
71 | COC(=O)c1cc2ccsc2n1CC(=O)Nc1cc(C)cc(C)c1 | inconclusive: 6.51 µM [inhibitor, partial curve, poor fit] | –
72 | CC(NCc1ccc(OCC(N)=O)cc1)C12CC3CC(CC(C3)C1)C2 (configuration not stated) | inconclusive: 25.1 µM [inhibitor, partial curve, poor fit] | –
73 | COCCNC(=O)Cn1c(=O)n(CCCCCC(=O)NCc2ccc3c(c2)OCO3)c(=O)c2sccc21 | inconclusive: 1.78 µM [activator, single point] | –
74 | Cc1ccc2[nH]c(O)c(N=NC(=O)CCc3ccccc3)c2c1Br | – | inactive: 7.66%
75 | C=C1CC2C3CC[C@@]4(OCOC45COCO5)[C@@]3(C)C(O)CC2[C@@]2(C)CCC(=O)C=C12 (some centres not stated) | inconclusive: 35.5 µM [inhibitor, partial curve, poor fit] | –
76 | Cc1ccccc1NC(=O)CSc1nc2c(c(=O)n(C)c(=O)n2C)n1Cc1ccccc1F | – | inactive: 1.71% [at 46.1 µM]
77 | CCCCn1cnc2c(cnn2-c2ccc(F)cc2)c1=O | inconclusive: 35.5 µM [inhibitor, single point] | –
